Among the data in PMC10957081 are binding values, retold here.

Sequences of proteins named here, by UniProt entry; tags and fusion partners are left off. Residues count along the entry.
UniProt O00206, residues 24-839: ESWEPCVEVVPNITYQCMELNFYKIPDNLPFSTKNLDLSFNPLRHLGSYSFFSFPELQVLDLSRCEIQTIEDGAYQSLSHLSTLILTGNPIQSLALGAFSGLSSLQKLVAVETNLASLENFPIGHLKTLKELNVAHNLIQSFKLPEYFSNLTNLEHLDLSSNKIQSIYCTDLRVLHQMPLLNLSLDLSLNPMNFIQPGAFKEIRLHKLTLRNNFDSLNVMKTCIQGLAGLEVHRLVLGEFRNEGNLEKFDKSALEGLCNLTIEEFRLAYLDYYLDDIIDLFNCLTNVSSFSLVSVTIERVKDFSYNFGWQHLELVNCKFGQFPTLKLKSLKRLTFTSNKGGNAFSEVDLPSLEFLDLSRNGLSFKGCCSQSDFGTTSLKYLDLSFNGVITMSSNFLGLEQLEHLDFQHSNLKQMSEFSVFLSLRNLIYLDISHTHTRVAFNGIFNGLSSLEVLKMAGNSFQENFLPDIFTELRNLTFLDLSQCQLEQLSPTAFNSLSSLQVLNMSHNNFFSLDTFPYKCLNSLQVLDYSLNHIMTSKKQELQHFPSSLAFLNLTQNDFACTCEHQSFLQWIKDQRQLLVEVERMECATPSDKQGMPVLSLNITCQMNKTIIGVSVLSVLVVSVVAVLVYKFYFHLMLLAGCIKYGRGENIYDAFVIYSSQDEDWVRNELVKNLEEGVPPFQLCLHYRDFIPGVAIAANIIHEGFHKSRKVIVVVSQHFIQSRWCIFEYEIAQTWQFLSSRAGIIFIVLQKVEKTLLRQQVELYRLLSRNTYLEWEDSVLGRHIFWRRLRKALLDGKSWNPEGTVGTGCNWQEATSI
UniProt P03146: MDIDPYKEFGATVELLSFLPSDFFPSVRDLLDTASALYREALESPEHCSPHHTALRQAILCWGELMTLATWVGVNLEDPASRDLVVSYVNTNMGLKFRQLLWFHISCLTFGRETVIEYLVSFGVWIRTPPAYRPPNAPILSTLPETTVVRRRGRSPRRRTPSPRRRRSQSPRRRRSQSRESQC

Results are given in words; binding and its absence hold for the method and conditions named. Binding seen in cells or lysates may run through a third protein.

In this test the target is TLR4 (toll-like receptor 4), endogenous in THP-1 macrophages (human (endogenous in THP-1)) (UniProt O00206). Nature of the test: proximity ligation; THP-1 macrophages (PMA) incubated with GST, GST-HBeAg or HBcAg (10 μg/mL each) for 1 hour at 4°C, fixed with acetone, TLR4 and GST primary antibodies overnight at 4°C; Duolink PLA In Situ Red; only the binder purified.

On to “HBcAg (hepatitis B virus core antigen), recombinant (from UniProt P03146 1-183)”, for which the binding result is on record as “no binding (tested: 10 μg/mL)”.
